Reference: US20220273637A1, “NOVEL PFAR-INHIBITING COMPOUNDS” (UNIVERSITE DE BRETAGNE OCCIDENTALE (UBO), priority 2019, published 2022)
Some entries share one result that the patent states for a list of compounds.

test system: PFAR (protein folding activity of ribosome); assay: Inhibition of PFAR in yeast cells (LuxAB luciferase refolding after heat shock); type: cell-based; conditions: luciferase activity at 0, 90 and 150 minutes after heat shock, FIG. 2

Row | SMILES | concentration from which PFAR is inhibited [µM]
1 | CN1CCCC(n2nc(Cc3ccc(Cl)cc3)c3ccccc3c2=O)CC1 (stereo not drawn) [azelastine] | ≥ 150
2 | CN(C)CCCN1c2ccccc2Sc2ccc(C(F)(F)F)cc21 [triflupromazine] | ≥ 100
3 | CN1CCCC(CC2c3ccccc3Sc3ccccc32)C1 (stereo not drawn) [metixene] | ≥ 100
